Test results as given in patent publication US8048433B2, “Deacylation of LPS in gram negative bacteria” (priority 2004, dated 2011).
Some entries share one result that the patent states for a list of compounds.

B1: PagL(Pa): PagL homolog (lipid A 3-O-deacylase) of P. aeruginosa, SEQ ID No:6 (protein, listed as Pseudomonas aeruginosa)
chain: MKKLLPLAVLAALSSVHVASAQAADVSAAVGATGQSGMTYRLGLSWDWDKSWWQTSTGRLTGYWDAGYTYWEGGDEGAGKHSLSFAPVFVYEFAGDSIKPFIEAGIGVAAFSGTRVGDQNLGSSLNFEDRIGAGLKFANGQSVGVRAIHYSNAGLKQPNDGIESYSLFYKIPI
B2: PagL(Bb): lipid A 3-O-deacylase PagL of B. bronchiseptica, SEQ ID No. 1 (protein, listed as Bordetella sp.)
chain: MQFLKKNKPLFGIVTLALACATAQAQPTQGGVSLHYGIGDHYQRVTLNYETPTLWSHQFGGNWGRLDLTPELGASYWWADGSRSPGHVWQASAIPMFRWWTGERFYIEAGIGATVFSSTSFADKRIGSAFQFGDHIGLGFLLTPSNRIGLRYSHFSNAGIKEPNPGLDIVQLTYTYQF

Test system: E. coli LPS
Assay: In vivo modification of E. coli LPS by PagL expressed in E. coli BL21 Star (DE3) (Tricine-SDS-PAGE, GC/MS, ESI-MS)
Assay type: cell-based
Conditions: IPTG induction, FIG. 4
Procedure: To LPS-containing samples 0.5 mg/ml proteinase K (end concentration) was added to the sample buffer (28). The samples were incubated for 60 min at 55° C., followed by 10 min at 95° C. to inactivate proteinase K. The samples was then diluted 10 fold by adding sample buffer, after which 2 μl of the sample were applied to a Tricine-SDS-PAGE gel (30). The bromophenol blue was allowed to run into the separating gel at 35 V, after which the voltage was increased to 105 V. After the front reached the bottom of the gel, the samples were left running for another 45 min. The gels were fixed overnight in water/ethanol/acetic acid 11:8:1 (v/v/v) and subsequently stained with silver as described (31).
LPS was isolated using the hot phenol/water extraction method (3). […]
To study whether the cloned PagL homologs were active on E. coli LPS, IPTG was added to exponentially growing E. coli BL21 Star™ (DE3) cells containing the empty vector pET-11a or the pPagL plasmids, and after various incubation periods, samples equivalent to one OD600 unit were collected and their LPS content was analyzed by Tricine-SDS-PAGE. […]
Structural Analysis of PagL-Modified LPS: to determine its fatty acid content, LPS was isolated from bacteria that were grown in the presence of 10 mM MgCl2 to suppress PhoP/PhoQ-regulated modifications of lipid A and analyzed by GC/MS. […]

Molecule | time after induction until conversion of LPS into a form with higher electrophoretic mobility was almost complete [min]
B1 | ≤ 75
B2 | ≤ 75
